Protein sequences, listed by entry. Tags and fused reporters are not part of them. Residues count along the entry.
UniProt Q05066: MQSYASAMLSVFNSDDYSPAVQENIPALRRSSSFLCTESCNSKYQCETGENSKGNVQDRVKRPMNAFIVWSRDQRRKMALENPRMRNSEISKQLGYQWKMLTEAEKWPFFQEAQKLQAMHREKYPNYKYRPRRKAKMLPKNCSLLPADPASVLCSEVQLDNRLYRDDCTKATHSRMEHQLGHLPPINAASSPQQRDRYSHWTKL
UniProt Q9BYT3: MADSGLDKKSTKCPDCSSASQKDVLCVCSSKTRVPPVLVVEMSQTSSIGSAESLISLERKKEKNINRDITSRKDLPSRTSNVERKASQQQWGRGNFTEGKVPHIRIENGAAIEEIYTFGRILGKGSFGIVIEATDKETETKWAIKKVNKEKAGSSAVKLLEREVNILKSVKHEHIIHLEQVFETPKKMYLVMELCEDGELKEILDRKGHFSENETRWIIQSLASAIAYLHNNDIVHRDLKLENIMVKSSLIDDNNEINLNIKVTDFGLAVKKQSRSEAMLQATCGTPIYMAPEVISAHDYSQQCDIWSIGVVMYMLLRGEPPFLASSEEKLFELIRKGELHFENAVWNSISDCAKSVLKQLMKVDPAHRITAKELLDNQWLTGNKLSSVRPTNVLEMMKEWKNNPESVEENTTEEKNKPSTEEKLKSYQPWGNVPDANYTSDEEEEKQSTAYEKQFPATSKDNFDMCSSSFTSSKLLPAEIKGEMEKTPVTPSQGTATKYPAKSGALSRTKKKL
UniProt O14776: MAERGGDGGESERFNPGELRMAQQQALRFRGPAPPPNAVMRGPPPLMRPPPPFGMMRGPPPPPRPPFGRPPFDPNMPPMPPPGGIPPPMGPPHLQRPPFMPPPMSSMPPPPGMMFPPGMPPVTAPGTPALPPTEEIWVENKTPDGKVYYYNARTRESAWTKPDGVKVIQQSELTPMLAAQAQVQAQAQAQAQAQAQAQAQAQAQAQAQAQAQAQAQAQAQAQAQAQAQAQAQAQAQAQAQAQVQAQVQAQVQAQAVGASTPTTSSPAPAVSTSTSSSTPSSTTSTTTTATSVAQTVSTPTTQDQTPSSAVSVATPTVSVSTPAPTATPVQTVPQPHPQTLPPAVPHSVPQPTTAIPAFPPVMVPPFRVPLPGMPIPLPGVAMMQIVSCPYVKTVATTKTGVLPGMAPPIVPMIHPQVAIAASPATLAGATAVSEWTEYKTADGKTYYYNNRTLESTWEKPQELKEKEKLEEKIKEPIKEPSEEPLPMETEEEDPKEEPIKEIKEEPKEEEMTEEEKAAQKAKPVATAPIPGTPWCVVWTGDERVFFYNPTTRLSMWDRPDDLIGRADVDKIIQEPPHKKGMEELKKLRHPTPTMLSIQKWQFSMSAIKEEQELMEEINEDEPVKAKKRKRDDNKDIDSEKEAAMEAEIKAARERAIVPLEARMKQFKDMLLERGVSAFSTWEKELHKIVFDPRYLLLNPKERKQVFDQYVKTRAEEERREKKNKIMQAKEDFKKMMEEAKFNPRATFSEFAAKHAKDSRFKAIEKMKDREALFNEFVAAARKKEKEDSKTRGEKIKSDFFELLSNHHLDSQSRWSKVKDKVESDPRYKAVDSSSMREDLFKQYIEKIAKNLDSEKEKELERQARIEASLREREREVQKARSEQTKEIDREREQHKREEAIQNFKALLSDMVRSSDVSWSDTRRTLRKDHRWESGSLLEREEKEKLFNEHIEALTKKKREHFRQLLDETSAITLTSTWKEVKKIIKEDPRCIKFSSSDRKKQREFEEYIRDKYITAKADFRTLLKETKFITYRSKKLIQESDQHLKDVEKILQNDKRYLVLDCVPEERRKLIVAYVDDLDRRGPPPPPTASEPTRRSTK
UniProt Q3ZCQ8, residues 45-353: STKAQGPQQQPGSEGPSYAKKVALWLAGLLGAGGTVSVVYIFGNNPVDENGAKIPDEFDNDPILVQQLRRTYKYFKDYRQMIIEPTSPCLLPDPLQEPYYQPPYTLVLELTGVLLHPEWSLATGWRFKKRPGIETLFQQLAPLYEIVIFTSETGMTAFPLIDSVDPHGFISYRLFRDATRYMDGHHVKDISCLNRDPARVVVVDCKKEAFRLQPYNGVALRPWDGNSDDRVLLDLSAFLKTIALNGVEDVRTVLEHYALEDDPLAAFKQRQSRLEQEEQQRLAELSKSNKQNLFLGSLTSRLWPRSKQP
UniProt P11387: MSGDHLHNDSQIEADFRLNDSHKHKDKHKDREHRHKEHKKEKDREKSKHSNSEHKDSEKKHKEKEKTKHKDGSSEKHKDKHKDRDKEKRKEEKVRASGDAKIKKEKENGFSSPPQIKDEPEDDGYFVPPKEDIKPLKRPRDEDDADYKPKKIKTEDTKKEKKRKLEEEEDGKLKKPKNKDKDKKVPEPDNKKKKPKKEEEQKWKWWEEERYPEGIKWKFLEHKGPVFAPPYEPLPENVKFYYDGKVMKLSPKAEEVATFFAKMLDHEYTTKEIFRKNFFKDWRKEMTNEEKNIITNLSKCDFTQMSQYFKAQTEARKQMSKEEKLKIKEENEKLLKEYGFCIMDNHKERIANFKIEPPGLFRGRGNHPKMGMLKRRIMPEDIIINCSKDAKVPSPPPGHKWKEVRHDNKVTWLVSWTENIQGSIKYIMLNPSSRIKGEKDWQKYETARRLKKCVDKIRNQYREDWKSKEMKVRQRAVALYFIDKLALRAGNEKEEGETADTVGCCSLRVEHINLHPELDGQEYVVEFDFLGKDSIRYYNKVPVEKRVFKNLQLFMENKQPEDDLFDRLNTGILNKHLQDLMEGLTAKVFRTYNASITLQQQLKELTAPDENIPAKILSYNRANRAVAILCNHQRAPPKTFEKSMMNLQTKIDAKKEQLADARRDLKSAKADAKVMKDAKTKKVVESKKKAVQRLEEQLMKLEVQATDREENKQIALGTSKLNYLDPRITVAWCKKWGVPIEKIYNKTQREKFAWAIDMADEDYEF
UniProt P68363: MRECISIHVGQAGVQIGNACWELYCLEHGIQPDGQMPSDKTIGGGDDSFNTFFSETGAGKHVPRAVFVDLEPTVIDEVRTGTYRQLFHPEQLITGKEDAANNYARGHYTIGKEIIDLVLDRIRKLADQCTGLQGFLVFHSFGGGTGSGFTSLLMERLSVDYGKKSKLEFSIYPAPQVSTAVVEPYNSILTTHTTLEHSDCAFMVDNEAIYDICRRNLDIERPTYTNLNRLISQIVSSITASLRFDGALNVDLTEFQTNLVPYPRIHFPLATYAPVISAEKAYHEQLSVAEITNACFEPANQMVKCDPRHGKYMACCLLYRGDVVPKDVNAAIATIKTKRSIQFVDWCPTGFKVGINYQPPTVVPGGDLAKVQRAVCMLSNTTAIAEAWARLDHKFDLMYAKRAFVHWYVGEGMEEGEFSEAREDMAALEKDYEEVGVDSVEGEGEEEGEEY
UniProt Q14157: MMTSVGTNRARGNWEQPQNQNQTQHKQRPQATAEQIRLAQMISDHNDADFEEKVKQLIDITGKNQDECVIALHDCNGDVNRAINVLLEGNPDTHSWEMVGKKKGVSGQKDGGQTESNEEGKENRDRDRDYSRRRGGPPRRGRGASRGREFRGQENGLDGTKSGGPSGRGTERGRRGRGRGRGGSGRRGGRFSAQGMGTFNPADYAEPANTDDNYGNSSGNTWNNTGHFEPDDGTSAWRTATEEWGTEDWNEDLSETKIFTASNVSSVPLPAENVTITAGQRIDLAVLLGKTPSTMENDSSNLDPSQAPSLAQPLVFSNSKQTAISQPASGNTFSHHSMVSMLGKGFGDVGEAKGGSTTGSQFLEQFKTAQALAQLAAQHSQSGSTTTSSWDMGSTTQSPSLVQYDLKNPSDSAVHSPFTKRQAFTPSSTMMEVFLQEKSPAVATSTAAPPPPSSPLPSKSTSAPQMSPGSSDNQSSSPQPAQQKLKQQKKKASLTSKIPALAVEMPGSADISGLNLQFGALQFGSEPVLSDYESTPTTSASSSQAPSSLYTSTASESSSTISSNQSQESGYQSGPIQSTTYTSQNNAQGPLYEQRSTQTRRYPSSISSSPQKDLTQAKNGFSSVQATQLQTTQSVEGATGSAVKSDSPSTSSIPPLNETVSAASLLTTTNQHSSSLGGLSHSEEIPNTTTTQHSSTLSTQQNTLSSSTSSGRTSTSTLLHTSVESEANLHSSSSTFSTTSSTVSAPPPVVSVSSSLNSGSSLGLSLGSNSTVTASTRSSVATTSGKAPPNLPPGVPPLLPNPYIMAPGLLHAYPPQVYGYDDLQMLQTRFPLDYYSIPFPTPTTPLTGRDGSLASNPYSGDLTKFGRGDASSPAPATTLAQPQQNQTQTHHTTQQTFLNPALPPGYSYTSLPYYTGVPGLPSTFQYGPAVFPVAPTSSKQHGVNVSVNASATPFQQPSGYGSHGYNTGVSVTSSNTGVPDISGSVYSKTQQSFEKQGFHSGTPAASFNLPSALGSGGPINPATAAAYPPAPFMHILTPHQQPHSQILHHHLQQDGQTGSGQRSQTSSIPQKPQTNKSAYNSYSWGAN
UniProt O14980: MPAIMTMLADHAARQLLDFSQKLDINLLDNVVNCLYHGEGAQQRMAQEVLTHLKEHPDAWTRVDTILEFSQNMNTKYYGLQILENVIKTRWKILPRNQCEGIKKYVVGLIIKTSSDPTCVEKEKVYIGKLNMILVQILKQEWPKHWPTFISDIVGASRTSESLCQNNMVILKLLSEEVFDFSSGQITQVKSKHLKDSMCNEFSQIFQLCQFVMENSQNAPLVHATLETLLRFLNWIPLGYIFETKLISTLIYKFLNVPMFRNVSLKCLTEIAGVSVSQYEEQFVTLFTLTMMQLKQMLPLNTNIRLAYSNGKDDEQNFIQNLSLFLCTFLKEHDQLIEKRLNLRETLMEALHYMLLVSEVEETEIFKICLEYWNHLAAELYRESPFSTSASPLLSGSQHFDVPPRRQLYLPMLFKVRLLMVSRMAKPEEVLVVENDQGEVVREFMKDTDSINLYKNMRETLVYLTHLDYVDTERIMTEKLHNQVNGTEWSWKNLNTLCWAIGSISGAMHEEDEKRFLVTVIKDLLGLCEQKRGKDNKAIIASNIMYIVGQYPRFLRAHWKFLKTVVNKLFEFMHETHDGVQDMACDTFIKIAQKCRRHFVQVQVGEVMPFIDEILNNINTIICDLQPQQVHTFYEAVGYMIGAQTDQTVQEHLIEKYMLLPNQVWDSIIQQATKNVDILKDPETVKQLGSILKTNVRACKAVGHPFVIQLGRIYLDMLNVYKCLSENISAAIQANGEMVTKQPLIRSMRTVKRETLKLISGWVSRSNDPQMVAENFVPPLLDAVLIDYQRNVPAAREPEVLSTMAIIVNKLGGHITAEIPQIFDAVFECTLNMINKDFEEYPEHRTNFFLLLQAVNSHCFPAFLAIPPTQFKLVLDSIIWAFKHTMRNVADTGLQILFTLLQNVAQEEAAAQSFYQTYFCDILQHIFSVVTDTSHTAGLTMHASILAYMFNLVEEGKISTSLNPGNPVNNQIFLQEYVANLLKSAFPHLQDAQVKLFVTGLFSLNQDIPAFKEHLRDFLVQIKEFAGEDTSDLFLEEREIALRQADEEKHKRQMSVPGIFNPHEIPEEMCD
UniProt P25490: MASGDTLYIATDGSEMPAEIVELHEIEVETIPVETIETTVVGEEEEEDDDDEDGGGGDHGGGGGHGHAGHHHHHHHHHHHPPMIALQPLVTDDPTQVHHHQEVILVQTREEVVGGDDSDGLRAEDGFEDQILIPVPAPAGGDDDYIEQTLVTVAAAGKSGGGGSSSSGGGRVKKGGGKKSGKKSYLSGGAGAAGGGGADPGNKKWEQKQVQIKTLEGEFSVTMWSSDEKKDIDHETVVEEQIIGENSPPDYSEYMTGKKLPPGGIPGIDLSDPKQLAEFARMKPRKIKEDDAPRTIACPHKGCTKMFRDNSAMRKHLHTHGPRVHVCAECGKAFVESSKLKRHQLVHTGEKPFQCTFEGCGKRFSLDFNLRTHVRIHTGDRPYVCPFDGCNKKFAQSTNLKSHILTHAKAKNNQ
UniProt O95365: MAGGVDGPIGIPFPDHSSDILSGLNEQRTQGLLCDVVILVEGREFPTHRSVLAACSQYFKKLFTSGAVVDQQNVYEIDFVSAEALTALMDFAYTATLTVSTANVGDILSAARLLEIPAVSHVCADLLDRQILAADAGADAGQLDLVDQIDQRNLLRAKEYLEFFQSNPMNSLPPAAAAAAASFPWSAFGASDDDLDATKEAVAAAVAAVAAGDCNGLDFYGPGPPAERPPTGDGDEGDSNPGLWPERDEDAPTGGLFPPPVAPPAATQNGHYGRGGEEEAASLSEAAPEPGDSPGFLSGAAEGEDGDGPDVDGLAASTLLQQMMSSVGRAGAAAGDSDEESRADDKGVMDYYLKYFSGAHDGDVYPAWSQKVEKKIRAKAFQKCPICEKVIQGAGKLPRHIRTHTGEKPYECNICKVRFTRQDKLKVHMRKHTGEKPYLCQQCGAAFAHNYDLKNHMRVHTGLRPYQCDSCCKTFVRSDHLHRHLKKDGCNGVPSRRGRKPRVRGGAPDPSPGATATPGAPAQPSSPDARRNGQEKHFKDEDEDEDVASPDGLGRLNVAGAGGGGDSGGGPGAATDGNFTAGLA

In PMC7956269:

Molecular target: Biotin-FOXC1 (mouse) (UniProt Q61572)
Experiment: affinity purification with mass spectrometry; streptavidin-agarose precipitation of biotinylated FOXC1 from nuclear extract of stable HEK293T cells (293T-Biotin-FOXC1); IP350 buffer (350 mM NaCl, 20 mM Tris-HCl pH 7.5, 0.5% NP40, 1 mM EDTA, 10% glycerin); SDS-PAGE, LC-ESI-MS/MS; proteins of the 293T-Biotin control deducted

Sry (from UniProt Q05066 1-204)
binding: binds

Stag2 (from UniProt Q8N3U4 1-1231)
binding: binds

Stk33 (from UniProt Q9BYT3 1-514)
binding: binds

Tardbp (from UniProt Q13148 1-414)
binding: binds

Tcerg1 (from UniProt O14776 1-1098)
binding: binds

Timm44 (human (endogenous in HEK293T))
binding: binds

Timm50 (from UniProt Q3ZCQ8 45-353)
binding: binds

Tln1 (from UniProt Q9Y490 1-2541)
binding: binds

Top1 (from UniProt P11387 1-765)
binding: binds

Trim28 (from UniProt Q13263 1-835)
binding: binds

Tuba1b (from UniProt P68363 1-451)
binding: binds

Tubb4b (from UniProt P68371 1-445)
binding: binds

Ubap2l (from UniProt Q14157 1-1087)
binding: binds

Ubqln2 (from UniProt Q9UHD9 1-624)
binding: binds

Xpo1 (from UniProt O14980 1-1071)
binding: binds

Yy1 (from UniProt P25490 1-414)
binding: binds

Zbtb7a (from UniProt O95365 1-584)
binding: binds

Zfp346 (human (endogenous in HEK293T))
binding: binds

Zfp512 (human (endogenous in HEK293T))
binding: binds

Zfp768 (human (endogenous in HEK293T))
binding: binds

Results are given in words; binding and its absence hold for the method and conditions named. Binding seen in cells or lysates may run through a third protein. A yes stands for co-enrichment or nearness to the bait. Other partners may have been found.
